# Data: PMC10126264 (Frontiers in Cellular and Infection Microbiology, 2023)
# Assay: peptide made by a vendor (Fmoc solid-phase peptide synthesis)
# Settings: whole synthesis
substance,measurement,value
PEPTIDE1{K.W.K.S.F.I.K.K.L.T.K.K.F.L.H.S.A.K.K.F.[am]}$$$$V2.0,final HPLC purity,>90%

# Some peptides are written in HELM: one residue between dots, names in brackets for other building blocks, links after the first $.
